Data: PubChem BioAssay AID504648 (National Center for Advancing Translational Sciences (NCATS), 2011)
The whole screen tested about 390,000 compounds, of which about 610 (0.16%) were called active. The inconclusive results got no clear call from the source; some entries with a clear call stand among them for comparison. The call rests on the fitted dose curve; in most records, active means well fitted inhibition curve with a large enough effect; inconclusive means small, poorly fitted or top-dose-only effect, or effect the other way, or another doubt; inactive means no such curve, though single readings can be large or run the other way. Potencies of inconclusive entries are doubtful fits and often do not repeat.

Test: Nrf2 qHTS screen for inhibitors: counterscreen for cytotoxicity
Settings: A549 ARE-Fluc cells, CellTiter-Fluor viability, 18-24 h; activity change, negative = cytotoxicity: at 46 µM (top of the series)
Method in brief: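 Cytotoxicity counterscreen: CellTiter-Fluor fluorescence was measured in A549 ARE_Fluc cells after 18-24 h of compound exposure in a concentration series. The subsequent BugLite luminescent read reports ARE-luciferase activity.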
On the % scale 0 is the no-effect control and ±100 the full control effect; potency means the concentration at half of the fitted maximal effect.

SMILES | Potency | activity change, negative = cytotoxicity
COc1ccc(NS(=O)(=O)c2ccc(Cl)c(NC(=O)c3ccccc3F)c2)cc1 | inconclusive: 25.9 µM [falling, single point] | –
CCn1cc2nc(SCC(=O)Nc3ccc(C)cc3C)n(Cc3ccc(C)cc3)c(=O)c2n1 | inconclusive: 6.51 µM [falling, partial curve, poor fit] | –
CC1CC(=O)N(c2ccc(NCCc3ccc(O)cc3)c([N+](=O)[O-])c2)C1=O (centres undefined) | inconclusive: 18.4 µM [falling, single point] | –
CCCCC(C(=O)NC1CCCC1)N(Cc1ccccc1)C(=O)c1snc(C(N)=O)c1N (centres undefined) | inconclusive: 32.6 µM [falling, partial curve, poor fit] | –
NC(=O)c1cc2ccc(O)cc2oc1=NCc1ccccc1 | inconclusive: 29.1 µM [activator, single point] | –
C=CCn1c(=O)c(C(=O)NCCN(CC)CC)c(O)c2ccccc21 | inconclusive: 18.4 µM [activator, partial curve, poor fit] | –
Cc1cccn2cc(CNS(=O)(=O)c3ccc4ccccc4c3)nc12 | – | inactive: -7.15%
CCc1ccc(S(=O)(=O)NCCc2csc3nc(-c4ccccc4)nn23)s1 | – | inactive: -1.07%
C[C@@H]1CN([C@H](C)CO)C(=O)Cc2cc(NS(=O)(=O)c3ccc(Cl)cc3)ccc2O[C@H]1CN(C)Cc1ccc(C(F)(F)F)cc1 | inconclusive: 25.9 µM [falling, partial curve, poor fit] | –
CCN1CC=C2C(C#N)=C(N)C(C#N)(C#N)[C@H](c3cccc(OC)c3OC)[C@H]2C1 | – | inactive: -3.43%
Nc1c(C(O)(C(F)(F)F)C(F)(F)F)ccc2ccccc12 | inconclusive: 25.9 µM [falling, partial curve, poor fit] | –
CC(=O)NC(c1ccc(C)cc1)c1cc([N+](=O)[O-])c2cccnc2c1O (centres undefined) | inconclusive: 20.6 µM [falling, partial curve] | –
C[C@H]1CCC/C=C/[C@@H]2C[C@H](O)C[C@H]2[C@H](O)[C@H](S(=O)c2ccc(O)cc2)CC(=O)O1 (some centres undefined) | inconclusive: 0.259 µM [falling, full curve] | –
Cc1cccc(C)c1OCc1cc(C(=O)N2CCC(c3ccncc3)CC2)no1 | – | inactive: -8.02%
O=C(CN1CCN(C(=O)c2ccc(-c3nc4ccccc4s3)o2)CC1)Nc1ccc(F)cc1 | inconclusive: 29.1 µM [falling, single point] | –
CN1CCCN(S(=O)(=O)c2ccc3c(c2)OCCO3)CC1 | inconclusive: 18.4 µM [activator, partial curve] | –
CN1C(=O)c2ccccc2Sc2ccc(NC(=O)COc3ccc(F)cc3)cc21 | – | inactive: -16.7%
CN(C)c1ccc(N=Nc2ccccc2C(=O)OCC(=O)N2CCCCCC2)cc1 | inconclusive: 9.2 µM [falling, partial curve, poor fit] | –
CC(C)C[C@H](NC(=O)c1nc[nH]c1C(=O)N[C@@H](CC(C)C)C(=O)OC(C)(C)C)C(=O)OCc1ccccc1 | inconclusive: 23.1 µM [falling, single point] | –
CN(CC(=O)Nc1ccc(Cl)cc1)C(=O)c1cccc(S(=O)(=O)N2CCN(Cc3ccccc3)CC2)c1 | inconclusive: 23.1 µM [falling, partial curve, poor fit] | –
O=C1c2ccccc2NC(c2cccc(F)c2)N1Cc1ccco1 (centres undefined) | inconclusive: 29.1 µM [falling, single point] | –
COc1cc2c(cc1OC)/C(=C/c1ccc(Br)cc1)C(=O)OC2 | – | inactive: 3.93%

SMILES | Potency | activity change, negative = cytotoxicity
COc1ccc(/C=C2\C(=O)ON=C2c2ccccc2)cc1 | – | inactive: 12.5%
CSc1ccccc1NC(=O)c1cc(-c2cccnc2)nc2ccc(Br)cc12 | – | inactive: -17.2%
CN(C)CCCN(Cc1ccccc1)C(=S)Nc1ccc(F)c(Cl)c1 | inconclusive: 29.1 µM [falling, single point] | –
CCCCn1c(SCC(=O)NCCCOC)nc2c(sc3ccccc32)c1=O | inconclusive: 1.84 µM [falling, partial curve, poor fit] | –
CCc1ccc(C(=O)c2cn(CC(=O)Nc3ccc(OC)c(OC)c3)c3ccc(C)cc3c2=O)cc1 | – | inactive: -1.44%
COc1ccc(-c2nnc(SCC(=O)NCc3ccc(C)cc3)nc2-c2ccc(OC)c(OC)c2)cc1OC | inconclusive: 25.9 µM [falling, single point] | –
CC(C)OC(=O)c1cccc(NC(=O)c2ccccc2)c1 | inconclusive: 16.4 µM [falling, partial curve, poor fit] | –
CCOc1ccc(CSC2=NCCN2)cc1[N+](=O)[O-] | inconclusive: 29.1 µM [falling, partial curve, poor fit] | –
Cc1nn(-c2ccccc2)c(C)c1/C=N/NC(=O)c1cc(C23CC4CC(CC(C4)C2)C3)[nH]n1 | inconclusive: 32.6 µM [falling, partial curve, poor fit] | –
O=C(CCN1N=C(c2ccccc2)CCC1=O)NCCc1ccc(Cl)cc1 | – | inactive: 7.21%
Cc1cccc2cc(/C=N/NC(=O)c3ccccc3O)c(Cl)nc12 | inconclusive: 25.9 µM [falling, single point] | –
CCN(CC)c1ccc(NC(=O)CCCCC(=O)Nc2ccc(N(CC)CC)cc2)cc1 | inconclusive: 29.1 µM [falling, partial curve, poor fit] | –
CC(/C=C/c1ccccc1F)=N\NC(=O)c1cccc(F)c1 | inconclusive: 23.1 µM [falling, partial curve, poor fit] | –
CC(C)(C)c1cc(C2=CSC3=NCCN23)cc(C(C)(C)C)c1O | inconclusive: 29.1 µM [falling, single point] | –
COC(=O)[C@]1(Cc2ccccc2)N[C@H](CN(C)C(=O)C2CCCCC2)[C@@H]2C(=O)N(Cc3ccccc3)C(=O)[C@@H]21 | inconclusive: 14.6 µM [falling, partial curve, poor fit] | –
O=C(NC1CCCCC1)N(Cc1cc2cc3c(cc2[nH]c1=O)OCCO3)CC1CCCO1 (centres undefined) | inconclusive: 4.61 µM [falling, single point] | –
CCOC(=O)c1oc2nc(C)c3c(c2c1N)CC(C)(C)OC3 | – | inactive: -0.038%
COCCN(CC(=O)Nc1cccc(C)c1C)C(=O)c1cc(-c2cccs2)nn1-c1ccccc1 | – | inactive: -14.8%
CCOC(=O)C1=C(C)N=c2s/c(=C/c3cccc([N+](=O)[O-])c3O)c(=O)n2C1c1ccc(OC)cc1OC (centres undefined) | active: 16.4 µM | –
CC(C)(C)n1nnnc1C(c1ccc(C(F)(F)F)cc1)N(Cc1ccc(F)cc1)Cc1ccco1 (centres undefined) | – | inactive: -22.5%
CC(=O)N(C)c1ccc(OCC(O)Cn2c3ccc(Cl)cc3c3cc(Cl)ccc32)cc1 (centres undefined) | inconclusive: 29.1 µM [falling, single point] | –
Cc1ccc(N(CC(O)CN2CCOCC2)S(=O)(=O)c2ccc3ccccc3c2)cc1 (centres undefined) | inconclusive: 13 µM [activator, partial curve, poor fit] | –

Fetched one by one from the list above, 2 records:
SMILES | Potency | activity change, negative = cytotoxicity
O=C(CCN1N=C(c2ccccc2)CCC1=O)NCCc1ccc(Cl)cc1 | – | inactive: 7.21%
CC(C)(C)n1nnnc1C(c1ccc(C(F)(F)F)cc1)N(Cc1ccc(F)cc1)Cc1ccco1 (centres undefined) | – | inactive: -22.5%

The list continues:

SMILES | Potency | activity change, negative = cytotoxicity
Cc1nc2ccc(NC(=O)c3cccc(S(=O)(=O)N(C)c4ccccc4)c3)cc2s1 | inconclusive: 23.1 µM [falling, single point] | –
CCOC(=O)C1(Cc2ccccc2C(F)(F)F)CCN(C(C)CCn2cccn2)CC1 (centres undefined) | inconclusive: 29.1 µM [falling, single point] | –
COc1ccc(Nc2nc(N)c(C(=O)c3ccc(F)cc3)s2)cc1 | – | inactive: -1.54%
COc1ccc(Cn2c(=O)c3cccnc3n(Cc3cccc(OC)c3)c2=O)cc1 | inconclusive: 1.16 µM [activator, full curve, poor fit] | –
Nc1cccc(-c2cn3ccsc3n2)c1 | – | inactive: 5.28%
CC(/C=N/NC(=O)c1nnn(-c2nonc2N)c1CN1CCCCC1)=C\c1ccccc1 | inconclusive: 18.4 µM [falling, partial curve, poor fit] | –
O=C(NCCCN1CCN(c2ccc(F)cc2)CC1)Nc1ccc(Cl)cc1 | – | inactive: 0.791%
NC(=O)c1ccc(N2CCN(S(=O)(=O)c3ccccc3)CC2)c([N+](=O)[O-])c1 | inconclusive: 4.11 µM [falling, full curve] | –
CCn1c(SCC(=O)Nc2nc3ccc(C)cc3s2)nc2c(c1=O)SC(C)C2 (centres undefined) | inconclusive: 20.6 µM [falling, single point] | –
COc1ccc(C2c3c(-c4c(C)cc(C)cc4O)n[nH]c3C(=O)N2Cc2ccco2)cc1 (centres undefined) | – | inactive: -6.51%
S=C(NCc1ccccn1)NN=Cc1ccccn1 | inconclusive: 14.6 µM [falling, partial curve, poor fit] | –
Cc1ccc(CN2C(=O)C(O)(c3c[nH]c4ccccc34)c3cc(Cl)ccc32)cc1 (centres undefined) | inconclusive: 32.6 µM [falling, partial curve, poor fit] | –
Nc1[nH]n(-c2c(Cl)cc(Cl)cc2Cl)c(=O)c1N=Nc1ccc(S(=O)(=O)Nc2ncccn2)cc1 | inconclusive: 16.4 µM [falling, single point] | –
Cc1ccc(-c2nnc(SCc3ccccc3C#N)o2)cc1 | – | inactive: -9.92%
C=CCn1c(CCC(=O)O)ccc1-c1ccccc1 | inconclusive: 5.17 µM [falling, single point] | –
O=C(C1CCCN(S(=O)(=O)Cc2ccccc2)C1)N1CCc2ccccc21 (centres undefined) | – | inactive: -1.64%
CCN1CCN(c2oc(COc3ccc(Cl)cc3)nc2C#N)CC1 | inconclusive: 32.6 µM [activator, partial curve, poor fit] | –
C=CCn1c(=N)c(C(=O)NCCCOC)cc2c(=O)n3cccc(C)c3nc21 | inconclusive: 16.4 µM [activator, partial curve] | –
N#Cc1cccc(NC(=O)CSc2ccc3c4c(cccc24)C(=O)c2ccccc2-3)c1 | active: 25.9 µM | –
O=C(Cc1cccc2ccccc12)NCC(=O)Nc1ccccc1F | – | inactive: 0.204%

Structural class, the entries above with bromine
SMILES | Potency | activity change, negative = cytotoxicity
COc1cc2c(cc1OC)/C(=C/c1ccc(Br)cc1)C(=O)OC2 | – | inactive: 3.93%
CSc1ccccc1NC(=O)c1cc(-c2cccnc2)nc2ccc(Br)cc12 | – | inactive: -17.2%
